{"sequences": {"note": "Sequences of proteins named here, by UniProt entry; tags and fusion partners are left off.", "UniProt O60260": "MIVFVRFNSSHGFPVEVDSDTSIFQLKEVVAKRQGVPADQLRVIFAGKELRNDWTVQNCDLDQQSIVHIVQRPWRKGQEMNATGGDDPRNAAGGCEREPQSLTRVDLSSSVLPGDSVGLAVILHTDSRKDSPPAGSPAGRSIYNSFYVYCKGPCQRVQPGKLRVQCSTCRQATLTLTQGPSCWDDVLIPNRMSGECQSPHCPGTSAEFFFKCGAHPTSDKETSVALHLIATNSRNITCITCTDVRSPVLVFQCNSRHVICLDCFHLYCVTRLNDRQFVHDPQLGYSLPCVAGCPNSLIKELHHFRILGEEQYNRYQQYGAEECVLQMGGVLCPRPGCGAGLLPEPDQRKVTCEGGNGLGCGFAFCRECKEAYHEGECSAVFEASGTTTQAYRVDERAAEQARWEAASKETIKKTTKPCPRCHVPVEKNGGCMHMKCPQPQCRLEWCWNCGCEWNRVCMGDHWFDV", "UniProt Q70CQ3": "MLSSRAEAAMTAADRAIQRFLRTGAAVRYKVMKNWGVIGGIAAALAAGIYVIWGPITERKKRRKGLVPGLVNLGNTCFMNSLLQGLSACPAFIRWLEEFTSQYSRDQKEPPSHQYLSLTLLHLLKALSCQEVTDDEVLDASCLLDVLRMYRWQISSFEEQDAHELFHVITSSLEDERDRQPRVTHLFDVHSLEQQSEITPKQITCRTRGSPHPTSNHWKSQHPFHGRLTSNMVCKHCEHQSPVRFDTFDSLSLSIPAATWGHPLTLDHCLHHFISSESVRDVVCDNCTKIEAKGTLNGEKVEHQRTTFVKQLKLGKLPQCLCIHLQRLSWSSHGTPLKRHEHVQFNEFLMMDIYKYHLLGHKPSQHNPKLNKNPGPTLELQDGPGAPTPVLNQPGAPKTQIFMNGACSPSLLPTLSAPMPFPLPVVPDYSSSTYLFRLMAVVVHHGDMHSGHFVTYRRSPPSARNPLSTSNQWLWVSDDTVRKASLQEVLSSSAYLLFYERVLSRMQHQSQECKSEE"}, "source": "paper PMC10904755", "key": {"GFP-Catalase": {"molecular_target": "T1, GFP-Catalase (UniProt P04040)", "T1 sequence": "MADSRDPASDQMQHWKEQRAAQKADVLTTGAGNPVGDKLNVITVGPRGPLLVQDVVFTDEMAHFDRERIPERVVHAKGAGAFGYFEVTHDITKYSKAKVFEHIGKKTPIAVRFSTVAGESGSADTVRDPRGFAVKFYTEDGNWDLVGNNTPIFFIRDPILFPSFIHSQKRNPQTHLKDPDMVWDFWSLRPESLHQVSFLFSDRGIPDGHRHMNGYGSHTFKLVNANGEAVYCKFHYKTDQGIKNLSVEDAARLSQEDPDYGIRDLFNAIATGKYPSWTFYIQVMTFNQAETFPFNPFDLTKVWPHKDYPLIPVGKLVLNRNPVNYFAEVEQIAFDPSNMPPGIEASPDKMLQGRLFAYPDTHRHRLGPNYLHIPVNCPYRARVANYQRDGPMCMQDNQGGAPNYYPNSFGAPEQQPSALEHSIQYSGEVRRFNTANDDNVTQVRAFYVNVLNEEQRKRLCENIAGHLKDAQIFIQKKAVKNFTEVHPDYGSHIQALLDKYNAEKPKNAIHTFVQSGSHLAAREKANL", "experiment": "co-IP; 293T cells transfected with the tagged plasmids; mild lysis buffer, supernatant with 1 μg of antibody for 16 h, then protein A/G magnetic beads for 2 h; immunoblot"}, "Flag-Parkin": {"molecular_target": "Flag-Parkin (UniProt O60260)", "experiment": "co-IP; 293T cells transfected with the tagged plasmids; mild lysis buffer, supernatant with 1 μg of antibody for 16 h, then protein A/G magnetic beads for 2 h; immunoblot"}, "[1]": {"molecular_target": "T2, endogenous Catalase (human (endogenous in T24, 5637, UM-UC-3)) (UniProt P04040)", "T2 sequence": "T1 sequence", "experiment": "co-IP; 'endogenous' co-IP in T24, 5637 and UM-UC-3 cells stably expressing Parkin; mild lysis buffer, supernatant with 1 μg of antibody for 16 h, then protein A/G magnetic beads for 2 h; immunoblot"}, "[2]": {"molecular_target": "Parkin stably expressed in BLCA cells (UniProt O60260)", "experiment": "co-IP; 'endogenous' co-IP in T24, 5637 and UM-UC-3 cells stably expressing Parkin; mild lysis buffer, supernatant with 1 μg of antibody for 16 h, then protein A/G magnetic beads for 2 h; immunoblot"}}, "note": "These are yes or no findings as the source states them, for the method shown. In cells and extracts the contact can be indirect. Some entries that bind do so weakly or less than the wild type. For some assays here: Sequences can lack the tags named with a protein."}
{"substance": "Flag-Parkin (from UniProt O60260 1-465) (enzyme)", "values": [{"measurement": "binding", "setting": "GFP-Catalase", "result": "binds"}]}
{"substance": "Myc-USP30 (from UniProt Q70CQ3 1-517) (enzyme)", "values": [{"measurement": "binding", "setting": "Flag-Parkin", "result": "binds"}, {"measurement": "binding", "setting": "GFP-Catalase", "result": "binds"}]}
{"substance": "Parkin stably expressed in BLCA cells (from UniProt O60260 1-465) (enzyme)", "values": [{"measurement": "binding", "setting": "[1]", "result": "binds"}]}
{"substance": "USP30 in BLCA cells (from UniProt Q70CQ3 1-517) (enzyme)", "values": [{"measurement": "binding", "setting": "[2]", "result": "binds"}]}
